Measurements reported in PubChem BioAssay AID686943 (Drosophila RNAi Screening Center, 2013).
The deposit covers about 23,000 reagents; below is an unselected part of those that have a named target and a result. 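Extra replicates exist only for a retested subset of genes; insulin dose and duration not given; both raised and lowered dpERK matter.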 Names joined by + are all predicted targets of the reagent. Not given: the amount of reagent, the time to read-out.

- Assay: 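Fly genes whose loss alters ERK activation after insulin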 (primary screen)
- System: Drosophila S2R+ haemocyte-like cells expressing YFP-tagged ERK (Rolled)
- Reagent: long dsRNA against Drosophila genes
- Treatment: insulin stimulation versus unstimulated cells; dose and duration not given
- Measured: 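Per-plate z-scores of phospho-ERK immunostaining normalised to YFP-tagged ERK, measured with and without insulin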
- Scale: replicate 1, z-score of dpERK with insulin and replicate 2, z-score of dpERK with insulin: higher = more active ERK per ERK-YFP after insulin; replicate 1, z-score of dpERK under basal conditions: higher = more basal active ERK per ERK-YFP; replicate 1, z-score of ERK-YFP with insulin: higher = more YFP-tagged ERK signal

target gene | PubChem SID | replicate 1, z-score of dpERK with insulin | replicate 2, z-score of dpERK with insulin | replicate 1, z-score of dpERK under basal conditions | replicate 1, z-score of ERK-YFP with insulin
mkg-p (GeneID 38955) | SID104190569 | 0.7 | 0.27 | 1.27 | -1.43
l(3)neo38 (GeneID 41423) | SID104194738 | 1.86 | -0.99 | -0.32 | 0.15
l(3)neo38 (GeneID 41423) | SID104195930 | 1.68 | 0.75 | -0.59 | -0.07
Nha2 + asRNA:CR43454 | SID104193386 | 1.72 | -0.27 | -0.88 | -0.16
CG2685 (GeneID 31259) | SID104198255 | -0.19 | -1.67 | -2.82 | -1.55
CG9512 (GeneID 32419) | SID104199981 | -0.93 | 0.68 | 0.5 | 0.34
Or59b (GeneID 37715) | SID104184424 | -1.33 | -1.43 | -0.61 | 0.42
CG10286 (GeneID 40786) | SID104192312 | -0.29 | 0.2 | -0.58 | -0.64
CG3492 (GeneID 37902) | SID104184165 | -0.2 | 0.49 | -0.37 | 0.39
robls54B (GeneID 5740248) | SID104185452 | 0.7 | 0.03 | 0.3 | -0.16
Orc6 (GeneID 36017) | SID104187289 | -0.1 | -0.15 | 0.68 | -0.51
CG5050 (GeneID 35048) | SID104182599 | 0.43 | 0.04 | -0.08 | 0.24
CG42237 (GeneID 32261) | SID104199683 | 0.87 | 0.52 | 0.11 | -0.32
Dic61B (GeneID 38020) | SID104188380 | -0.13 | 0.27 | -0.46 | -0.57
Nep3 (GeneID 33005) | SID104200477 | -0.49 | -0.2 | 0.21 | -0.07
CG7295 (GeneID 33365) | SID104180491 | -0.66 | 4.71 | -1.02 | 0.01
CG42816 (GeneID 39977) | SID104191022 | -0.42 | 0.13 | -0.02 | 0.07
CG10332 (retired record) + IM18 | SID104183856 | 0.56 | 0.03 | -1.05 | 0.44
insb (GeneID 36967) | SID104186787 | -0.25 | 0.26 | -0.57 | 0.36
CG5790 (GeneID 35095) | SID104182688 | -0.35 | -0.12 | -0.32 | 0.84
Mtpalpha (GeneID 34276) | SID104181786 | 0.21 | 0.88 | -0.39 | 0.85
DCTN4-p62 (GeneID 35709) | SID104185893 | -0.05 | 1.17 | -0.74 | 1.23
AnxB9 (GeneID 42492) | SID104193903 | 0.08 | -0.4 | -0.41 | -0.19
CG14565 (GeneID 40423) | SID104191518 | 0.17 | -0.23 | -0.4 | -0.18
peo (GeneID 47272) | SID104185787 | 0.78 | 0.39 | 0.25 | 0.53
SPoCk (GeneID 40495) | SID104191467 | -0.17 | 0.15 | 1.1 | 0.44
SPoCk (GeneID 40495) | SID104191498 | -0.96 | -1.84 | 0.56 | 0.62
SPoCk (GeneID 40495) | SID104191636 | -0.02 | 0.79 | 0.95 | -0.42
SPoCk (GeneID 40495) | SID104191637 | -0.13 | 1.52 | -0.57 | 0.13
SA1 (GeneID 33974) | SID104183216 | 0.91 | 0.83 | -0.34 | 0.86
tant (GeneID 44785) | SID104191193 | 0.51 | 1.35 | -0.21 | 1.14
ocn (GeneID 43567) | SID104196812 | 0.41 | 0 | 0.76 | 0.1
Pdcd4 (GeneID 32337) | SID104199152 | 0.06 | -1.02 | 0.01 | 0.52
NijC (GeneID 41568) | SID104194643 | -0.44 | -0.71 | -0.32 | 0.15
CG13728 (GeneID 39937) | SID104189848 | 1.23 | -0.07 | 0.5 | 0.82
CR33315 (GeneID 3771801) | SID104202304 | 0.28 | -0.22 | -0.79 | 0.52
CG30158 (GeneID 50149) | SID104184748 | -0.44 | 0.03 | 0.04 | 0.37
CG30158 (GeneID 50149) | SID104184766 | 0.06 | 0.81 | 0.67 | -0.09
CG30158 (GeneID 50149) | SID104184767 | 0.35 | 0.24 | -0.36 | 0.49
CG30158 (GeneID 50149) | SID104184804 | -0.01 | 1.35 | 0.8 | 0
Sfmbt (GeneID 34709) | SID104182344 | 1.02 | 1.02 | 0.37 | 1.22
Sk1 (GeneID 32089) | SID104199566 | -1.22 | -0.5 | -1.07 | 0.14
CG30460 (GeneID 36924) | SID104186351 | 0.58 | -0.2 | -0.23 | -0.02
CG30460 (GeneID 36924) | SID104186352 | -4.25 | -3.49 | -2.47 | -2.03
CG31016 (GeneID 326113) | SID104201132 | 1.07 | 0.53 | -0.36 | -0.03
Elp1 (GeneID 41399) | SID104194042 | 0.84 | 0.22 | -0.14 | -0.43
trc (GeneID 40165) | SID104191198 | 0.77 | 0.45 | -0.44 | -0.88
Sgt (GeneID 35052) | SID104182604 | -2.86 | -1.88 | -0.12 | -0.26
Adgf-A (GeneID 39976) | SID104190358 | -0.07 | -0.47 | 0.35 | 0.54
Nepl5 (GeneID 33892) | SID104183033 | -0.48 | -0.91 | -0.2 | 1.01
LManIV (GeneID 34204) | SID104183014 | 0.26 | -0.22 | -1.72 | -0.48
Polr3C (GeneID 41542) | SID104194282 | 1.66 | 0.03 | -0.11 | -1.44
Glo1 (GeneID 35656) | SID104186449 | -0.72 | -0.46 | -0.23 | -0.21
armi (GeneID 38427) | SID104187985 | 0.05 | 0.07 | 0.16 | -0.07
Hers (GeneID 33000) | SID104199221 | 2.08 | 0.25 | 1.65 | 0.33
Hers (GeneID 33000) | SID104199468 | -0.31 | 0.28 | -0.32 | 0.26
Gem4b + Gem4c | SID104197086 | -0.64 | -0.54 | 0.49 | 0.45
